Earlier results in patent publication US20210236445A1, “BACLOFEN AND ACAMPROSATE BASED THERAPY OF ALZHEIMER'S DISEASE IN PATIENTS HAVING LOST RESPONSIVENESS TO ACETYLCHOLINESTERASE INHIBITOR THERAPY” (priority 2018, published 2021).
At least one structure is not confirmed: it was looked up by name or label, or the drawing left a doubt.

System: patient's cognitive function
Conditions: compared with donepezil studies; cited from earlier work

## COc1ccc2c3c1O[C@H]1C[C@@H](O)C=C[C@@]31CCN(C)C2 [galantamine]
  Efficacy over time in Alzheimer's patients: limited efficacy
